We go through 4 substances from publication PMC11552638.

Protein sequences, listed by entry. Tags and fused reporters are not part of them.
UniProt Q14739: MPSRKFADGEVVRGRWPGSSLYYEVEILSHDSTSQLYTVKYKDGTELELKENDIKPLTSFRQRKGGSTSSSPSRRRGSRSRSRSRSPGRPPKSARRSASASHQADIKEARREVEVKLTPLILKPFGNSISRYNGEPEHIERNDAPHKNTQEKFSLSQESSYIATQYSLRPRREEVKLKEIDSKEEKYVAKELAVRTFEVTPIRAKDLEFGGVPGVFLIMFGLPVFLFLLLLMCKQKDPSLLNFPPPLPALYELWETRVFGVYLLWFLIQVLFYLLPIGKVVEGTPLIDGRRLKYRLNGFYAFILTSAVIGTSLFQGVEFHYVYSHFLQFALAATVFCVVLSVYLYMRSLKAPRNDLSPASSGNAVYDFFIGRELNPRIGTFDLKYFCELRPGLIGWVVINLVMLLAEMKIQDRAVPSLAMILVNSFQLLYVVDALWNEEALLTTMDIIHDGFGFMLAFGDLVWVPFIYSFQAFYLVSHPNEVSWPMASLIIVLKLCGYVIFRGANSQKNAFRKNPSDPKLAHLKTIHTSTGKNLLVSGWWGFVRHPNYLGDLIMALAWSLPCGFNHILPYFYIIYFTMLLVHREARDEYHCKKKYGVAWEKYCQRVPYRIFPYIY
UniProt P45973: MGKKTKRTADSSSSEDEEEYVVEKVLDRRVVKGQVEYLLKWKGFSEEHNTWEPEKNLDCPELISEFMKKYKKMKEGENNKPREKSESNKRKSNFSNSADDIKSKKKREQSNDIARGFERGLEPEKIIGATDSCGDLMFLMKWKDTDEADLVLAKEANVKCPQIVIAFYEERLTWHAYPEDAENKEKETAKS
UniProt P20700: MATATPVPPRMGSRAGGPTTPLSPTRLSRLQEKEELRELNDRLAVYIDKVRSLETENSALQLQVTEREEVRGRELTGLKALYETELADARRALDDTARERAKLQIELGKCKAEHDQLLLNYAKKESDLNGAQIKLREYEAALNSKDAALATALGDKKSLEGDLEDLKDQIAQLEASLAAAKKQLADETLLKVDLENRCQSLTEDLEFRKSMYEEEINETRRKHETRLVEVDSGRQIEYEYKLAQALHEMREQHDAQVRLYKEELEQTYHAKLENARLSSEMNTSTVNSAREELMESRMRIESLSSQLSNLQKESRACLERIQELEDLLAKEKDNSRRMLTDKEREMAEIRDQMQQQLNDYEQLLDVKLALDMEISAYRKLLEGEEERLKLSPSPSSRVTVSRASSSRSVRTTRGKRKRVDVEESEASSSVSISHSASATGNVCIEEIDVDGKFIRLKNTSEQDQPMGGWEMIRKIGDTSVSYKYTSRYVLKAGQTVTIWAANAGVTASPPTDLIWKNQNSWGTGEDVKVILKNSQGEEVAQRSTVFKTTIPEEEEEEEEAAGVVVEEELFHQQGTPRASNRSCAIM
UniProt Q92769: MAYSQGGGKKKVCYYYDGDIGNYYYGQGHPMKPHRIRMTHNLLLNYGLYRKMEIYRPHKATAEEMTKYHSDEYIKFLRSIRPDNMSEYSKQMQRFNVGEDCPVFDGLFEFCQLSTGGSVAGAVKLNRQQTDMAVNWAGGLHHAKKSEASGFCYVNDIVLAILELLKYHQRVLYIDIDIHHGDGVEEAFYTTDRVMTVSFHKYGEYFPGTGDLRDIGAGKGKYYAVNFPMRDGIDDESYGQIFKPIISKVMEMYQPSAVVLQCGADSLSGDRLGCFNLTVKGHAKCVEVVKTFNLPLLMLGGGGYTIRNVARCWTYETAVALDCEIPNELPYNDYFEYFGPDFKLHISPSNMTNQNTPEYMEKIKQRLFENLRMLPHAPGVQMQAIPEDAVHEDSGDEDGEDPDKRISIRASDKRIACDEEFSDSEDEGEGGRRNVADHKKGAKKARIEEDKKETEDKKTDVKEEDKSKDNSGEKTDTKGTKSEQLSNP

These are yes or no findings as the source states them, for the method shown. Binding seen in cells or lysates may run through a third protein. Some entries that bind do so weakly or less than the wild type.

Experiment [1] has as its target Lamin B receptor, LBR (human (endogenous in WI38hTERT, GM639 and NHDF fibroblasts)) (UniProt Q14739). Put plainly: proximity ligation; PLA in situ (DuoLink, anti-mouse and anti-rabbit probes) with pairs of primary antibodies on formaldehyde-fixed, methanol- and Triton-permeabilised human fibroblasts (GM639 and derivatives, WI38hTERT, NHDF); foci per nucleus or nuclear MFI; also in cells lacking or depleted of WRN, HDAC2, HDAC1 or HP1α, in replicatively senescing cells and in RAF oncogene-induced senescence (4-HT).

Experiment [2] concerns the target heterochromatin protein 1 alpha (HP1α) (human (endogenous in GM639, WI38hTERT and NHDF fibroblasts)) (UniProt P45973). The description is as above.

For the substance Lamin B1 (from UniProt P20700 1-586), in experiment [1], the binding entry is given as “binds”.
With “V5-tagged version of HDAC2 (from UniProt Q92769 1-488)”, the binding entry in experiment [2] was “binds”.
For the substance “heterochromatin protein 1 alpha (HP1α) (from UniProt P45973 1-191)”, the binding entry in experiment [1] is “binds”.
For the substance “histone deacetylase 2, HDAC2 (from UniProt Q92769 1-488)”, the binding entry in experiment [2] is “binds”.
